The list is a part of this screen's results and no random one: it is rich in T/C values a quarter to a half above the control, in often repeated tests (any T/C) and in doses without a T/C. Other doses and runs of a compound stand elsewhere. T/C gives the treated animals as a percentage of the vehicle group. Some entries give survivors of the animals treated and no T/C: the source holds a T/C of zero for them, seemingly a mark for toxic or unscored doses. Some survivor counts are full or nearly so, which does not show that the dose was tolerated: survival well below the control is almost never listed, so the zero probably covers shortened survival too. Counts of survivors are from the toxicity check (mostly the fifth day) where no day follows; animals may have died later. Schedules are NCI's codes, read here as Q, the interval in days (D) or hours (H), X, the number of doses. Some entries were tested several times; the values are given in rising order. Where survival is the endpoint, this PubChem deposit counts one and a half times the control or more as active, and values a quarter to a half above the control carry no call in these data; other NCI protocols may use other cut-offs. Some T/C values are followed by the survivors on the day toxicity was checked, most often the fifth; where none is given, no animal had died by that day. Marks such as (2×) say how often a value occurs here.
Test system: P388 leukemia ip, CD2F1 mice, survival T/C
Test: NCI In Vivo Anticancer Drug Screen. Data for tumor model P388 Leukemia (intraperitoneal) in CD2F1 (CDF1) mice
Settings: T/C endpoint: median survival time, higher T/C = longer survival
[1] = dose: 50.0 mg/kg/injection, schedule: Q01DX001 (ip), vehicle: Klucel (hydroxypropylcellulose) (HPC)

Compound: CC(CN1CC(=O)NC(=O)C1)N1CC(=O)NC(=O)C1 (stereo not given)
- T/C (dose: 12.5 mg/kg/injection, schedule: Q01DX005 (ip), vehicle: Klucel (hydroxypropylcellulose) (HPC), evaluated on day 30): 99, 115, 122 (2×), 126, 127, 128, 129 (2×), 130, 132, 133 (3×), 135, 136, 137, 138, 139 (3×), 142, 143, 144, 145, 147, 153, 155, 159, 171, 183, 256 % of control
- T/C (dose: 12.5 mg/kg/injection, schedule: Q01DX005 (ip), vehicle: Klucel (hydroxypropylcellulose) (HPC), evaluated on day 35): 161 % of control
- T/C (dose: 12.5 mg/kg/injection, schedule: Q01DX009 (ip), vehicle: Klucel (hydroxypropylcellulose) (HPC), evaluated on day 30): 124, 125, 129, 130, 140, 141, 149 (2×), 151, 159, 161, 162, 163, 164 (2×), 165, 168 (2×), 169 [5 of 6 alive], 173, 174, 175, 176 (2×), 177, 180, 191, 202, 204, 227, 239, 267, 294 % of control
- T/C (dose: 12.5 mg/kg/injection, schedule: Q01DX009 (ip), vehicle: Klucel (hydroxypropylcellulose) (HPC), evaluated on day 35): 169 and 179 % of control
- T/C (dose: 18.75 mg/kg/injection, schedule: Q04DX002 (ip), vehicle: Klucel (hydroxypropylcellulose) (HPC)): 141 % of control
- T/C (dose: 25.0 mg/kg/injection, schedule: Q01DX005 (ip), vehicle: Klucel (hydroxypropylcellulose) (HPC), evaluated on day 30): 99, 123 [2 of 3 alive], 128, 130, 132 (3×), 139, 140, 141 (3×), 142 (2×), 142 [2 of 3 alive], 144 (2×), 147 (2×), 148, 152, 153 (2×), 154 (2×), 156, 157, 159, 161, 163 (2×), 176 % of control
- T/C (dose: 25.0 mg/kg/injection, schedule: Q01DX005 (ip), vehicle: Klucel (hydroxypropylcellulose) (HPC), evaluated on day 35): 149 % of control
- T/C (dose: 25.0 mg/kg/injection, schedule: Q01DX009 (ip), vehicle: Klucel (hydroxypropylcellulose) (HPC), evaluated on day 30): 119, 124, 130, 145, 146, 148, 149, 151, 152, 158 (2×), 158 [5 of 6 alive], 159, 163, 165, 168, 169, 174, 175, 176, 178, 184, 187, 188, 189, 191, 193, 194, 200, 202, 207, 210, 220 % of control [5 of 6 alive]
- T/C (dose: 25.0 mg/kg/injection, schedule: Q01DX009 (ip), vehicle: Klucel (hydroxypropylcellulose) (HPC), evaluated on day 35): 117 and 183 % of control
- T/C (dose: 37.5 mg/kg/injection, schedule: Q04DX002 (ip), vehicle: Klucel (hydroxypropylcellulose) (HPC), evaluated on day 30): 105 (2×), 106, 108, 108 [5 of 6 alive], 109 (2×), 111, 112, 115 (2×), 117 (2×), 118 (3×), 119 (5×), 122, 123, 125, 126 (2×), 127, 142, 148, 183 % of control
- T/C (dose: 37.5 mg/kg/injection, schedule: Q04DX002 (ip), vehicle: Klucel (hydroxypropylcellulose) (HPC), evaluated on day 35): 114, 116, 131 % of control
- survivor count (dose: 37.5 mg/kg/injection, schedule: Q04DX002 (ip), vehicle: Klucel (hydroxypropylcellulose) (HPC)): 2 of 3 and 6 of 6
- T/C (dose: 37.5 mg/kg/injection, schedule: Q04DX003 (ip), vehicle: Klucel (hydroxypropylcellulose) (HPC)): 106, 112, 116 (3×), 119 (5×), 122, 123, 125 (2×), 126, 128 (4×), 129, 130, 131 (2×), 132, 133, 135, 137, 138, 139, 140 (2×), 147, 153, 266 % of control
- T/C [1]: 97, 105 (2×), 109, 111 (3×), 112 (2×), 113 (4×), 114 (2×), 115 (2×), 116 (2×), 117 (2×), 118 (2×), 119 (3×), 120, 121, 122, 123, 131 % of control
- survivor count [1]: 6 of 6
- T/C (dose: 50.0 mg/kg/injection, schedule: Q01DX005 (ip), vehicle: Klucel (hydroxypropylcellulose) (HPC), evaluated on day 30): 100, 122, 123, 132, 137, 139, 143, 144, 145, 148, 154 (2×), 155, 156, 159, 161, 162, 163, 165 [1 of 1 alive], 166 (4×), 167, 168, 170, 172, 174, 178, 181, 192, 200 % of control
- T/C (dose: 50.0 mg/kg/injection, schedule: Q01DX005 (ip), vehicle: Klucel (hydroxypropylcellulose) (HPC), evaluated on day 35): 200 % of control
- T/C (dose: 50.0 mg/kg/injection, schedule: Q01DX009 (ip), vehicle: Klucel (hydroxypropylcellulose) (HPC), evaluated on day 30): 103, 104, 106, 108, 112, 120, 122 (2×), 123, 133, 136, 137, 138, 157, 159, 160, 165, 166, 168, 169, 172, 179, 184, 185, 190, 193, 200, 205, 209, 215, 219, 225, 261 % of control
- T/C (dose: 50.0 mg/kg/injection, schedule: Q01DX009 (ip), vehicle: Klucel (hydroxypropylcellulose) (HPC), evaluated on day 35): 104 % of control
- survivor count (dose: 50.0 mg/kg/injection, schedule: Q01DX009 (ip), vehicle: Klucel (hydroxypropylcellulose) (HPC)): 3 of 3
- T/C (dose: 50.0 mg/kg/injection, schedule: Q04DX002 (ip), vehicle: Klucel (hydroxypropylcellulose) (HPC)): 131 % of control
- T/C (dose: 64.8 mg/kg/injection, schedule: Q04DX003 (ip), vehicle: saline): 126 % of control
- T/C (dose: 75.0 mg/kg/injection, schedule: Q04DX002 (ip), vehicle: Klucel (hydroxypropylcellulose) (HPC), evaluated on day 30): 100, 112 (2×), 116 (2×), 117 (2×), 118 (3×), 120 (2×), 121 (2×), 122 (2×), 125 (2×), 126 (2×), 127 (2×), 128 (3×), 131, 133 (2×), 135 (2×), 139 % of control
- T/C (dose: 75.0 mg/kg/injection, schedule: Q04DX002 (ip), vehicle: Klucel (hydroxypropylcellulose) (HPC), evaluated on day 35): 111, 121, 131 % of control
- survivor count (dose: 75.0 mg/kg/injection, schedule: Q04DX002 (ip), vehicle: Klucel (hydroxypropylcellulose) (HPC)): 3 of 3 and 6 of 6

Source: PubChem BioAssay AID330 (DTP/NCI, 2004)
